The series is described as follows: general procedure: peptide synthesis; CTL resin. The settings on record: whole synthesis.

In US10351598B2 (CAREGEN CO., LTD., priority 2016, dated 2019) one finds crude mass and crude yield data, which are given here for one substance.

As to Lys-Glu-Arg-Lys-Ser (KERKS), the crude mass was 0.77 g. Moreover, the crude yield (scale of the general procedure 700 mg of resin) worked out at 89.2%.
